Here are results for two sequences from publication doi:10.1101/772699.

Sequences of proteins named here, by UniProt entry; tags and fusion partners are left off. A change or cut given only in a name is not applied to a line headed by its entry.
UniProt P35631: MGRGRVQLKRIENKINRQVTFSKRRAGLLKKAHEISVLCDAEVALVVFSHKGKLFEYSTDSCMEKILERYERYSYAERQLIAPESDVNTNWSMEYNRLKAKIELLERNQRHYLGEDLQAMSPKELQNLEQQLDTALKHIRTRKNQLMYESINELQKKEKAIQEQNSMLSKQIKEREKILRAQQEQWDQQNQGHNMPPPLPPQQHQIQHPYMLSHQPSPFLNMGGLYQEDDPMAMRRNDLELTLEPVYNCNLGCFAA
UniProt O22456: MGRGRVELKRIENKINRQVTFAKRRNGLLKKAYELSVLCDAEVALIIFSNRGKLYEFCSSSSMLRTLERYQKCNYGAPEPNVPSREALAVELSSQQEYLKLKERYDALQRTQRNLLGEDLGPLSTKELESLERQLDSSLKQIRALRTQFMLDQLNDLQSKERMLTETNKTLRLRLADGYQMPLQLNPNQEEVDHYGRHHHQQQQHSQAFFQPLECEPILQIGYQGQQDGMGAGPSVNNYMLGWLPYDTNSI

Construct, isoform or probe ends are uncertain for at least one entry. For part of these data: At least one verdict rests on a figure or table, not on a statement of the authors.

In data set [1] the target is AP1 (Arabidopsis thaliana) (UniProt P35631). In words: EMSA. To be noted: protein translated in vitro.
Data set [2] deals with SEP3 (Arabidopsis thaliana) (UniProt O22456). The data set can be described thus: EMSA. To be noted: no SAP54 (BSA added); protein translated in vitro; residues 1-251.

“TCGAGGTCGGAAATTTAATTATATTCCAAATAAGGAAAGTATGGAACGTTCGACGGTATCGATAAGCTTGATGAAATTTAATTATATTCCAAATAAGGAAAGTATGGAACGTTATCGAATTCCTGCAGCCCGGGGGATCCACTAGTTCTAG (double strand) [two-CArG-box probe]”: the binding result in data set [1] (no SAP54) and in data set [2] was “binds” in each case. As to “TCGAGGTCGATAAAACGGCAAGGAGAATTATATTTTTATGATGAACATATCGACGGTATCGATAAGCTTGATGAAATTTAATTATATTCCAAATAAGGAAAGTATGGAACGTTATCGAATTCCTGCAGCCCGGGGGATCCACTAGTTCTAG (double strand) [one-CArG-box probe]”, the binding result in data set [1] (results similar to SEP3, SAP54 gives no supershift) was “binds”.
